Assay results published in PMC2750754.
These are yes or no findings as the source states them, for the method shown. Binding seen in cells or lysates may run through a third protein. Some results given as binding are weak or reduced against the parent protein; the word gives no strength.

The chains behind the UniProt entries cited, without tags or fusion partners. Where a name states a change or a piece, a line headed by the entry shows the natural chain unless it says otherwise.
UniProt Q16665: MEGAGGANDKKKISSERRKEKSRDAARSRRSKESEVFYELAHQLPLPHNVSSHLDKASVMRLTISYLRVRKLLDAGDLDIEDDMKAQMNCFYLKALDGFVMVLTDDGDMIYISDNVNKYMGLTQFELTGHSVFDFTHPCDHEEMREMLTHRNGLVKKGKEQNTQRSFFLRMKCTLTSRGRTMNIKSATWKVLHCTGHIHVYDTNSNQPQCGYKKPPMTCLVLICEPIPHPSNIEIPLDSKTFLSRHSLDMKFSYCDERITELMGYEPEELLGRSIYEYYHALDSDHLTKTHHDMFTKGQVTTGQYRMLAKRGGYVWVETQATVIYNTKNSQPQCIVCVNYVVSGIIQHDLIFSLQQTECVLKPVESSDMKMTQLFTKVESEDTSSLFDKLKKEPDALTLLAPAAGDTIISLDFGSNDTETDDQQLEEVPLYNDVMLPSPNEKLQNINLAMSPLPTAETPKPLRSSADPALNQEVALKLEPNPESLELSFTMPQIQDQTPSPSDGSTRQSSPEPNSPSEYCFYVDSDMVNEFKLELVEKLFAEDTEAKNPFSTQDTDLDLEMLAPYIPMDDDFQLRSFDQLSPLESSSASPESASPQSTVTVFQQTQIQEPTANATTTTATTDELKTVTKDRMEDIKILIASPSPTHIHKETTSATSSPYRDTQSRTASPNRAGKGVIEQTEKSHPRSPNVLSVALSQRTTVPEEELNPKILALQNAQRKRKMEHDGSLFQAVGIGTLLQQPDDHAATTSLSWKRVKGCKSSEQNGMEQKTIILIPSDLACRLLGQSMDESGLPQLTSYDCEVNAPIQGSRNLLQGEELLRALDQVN
UniProt Q8N668: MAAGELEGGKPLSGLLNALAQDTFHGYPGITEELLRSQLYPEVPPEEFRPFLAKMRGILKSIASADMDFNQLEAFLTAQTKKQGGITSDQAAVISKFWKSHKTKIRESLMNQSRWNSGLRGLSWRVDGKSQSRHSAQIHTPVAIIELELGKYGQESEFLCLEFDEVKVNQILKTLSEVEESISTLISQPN
UniProt P08238: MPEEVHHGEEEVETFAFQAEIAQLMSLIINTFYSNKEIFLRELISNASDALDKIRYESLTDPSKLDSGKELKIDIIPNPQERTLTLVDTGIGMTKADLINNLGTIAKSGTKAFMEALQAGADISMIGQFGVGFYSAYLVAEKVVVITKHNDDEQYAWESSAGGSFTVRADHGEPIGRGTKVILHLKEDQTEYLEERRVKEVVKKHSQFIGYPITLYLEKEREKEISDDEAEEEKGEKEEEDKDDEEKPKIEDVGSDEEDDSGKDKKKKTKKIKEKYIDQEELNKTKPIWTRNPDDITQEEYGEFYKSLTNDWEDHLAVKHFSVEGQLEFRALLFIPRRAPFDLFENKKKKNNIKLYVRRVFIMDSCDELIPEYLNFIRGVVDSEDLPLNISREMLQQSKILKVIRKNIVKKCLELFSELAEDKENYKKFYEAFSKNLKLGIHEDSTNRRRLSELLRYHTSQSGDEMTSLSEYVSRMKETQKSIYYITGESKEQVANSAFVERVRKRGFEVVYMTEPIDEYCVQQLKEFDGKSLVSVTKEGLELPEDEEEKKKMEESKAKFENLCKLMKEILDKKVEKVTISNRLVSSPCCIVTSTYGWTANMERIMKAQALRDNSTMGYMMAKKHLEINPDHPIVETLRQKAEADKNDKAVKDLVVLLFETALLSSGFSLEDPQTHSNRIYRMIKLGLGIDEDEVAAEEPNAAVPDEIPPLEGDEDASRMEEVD

Columns and labels:
[1] = molecular target: Flag-HIF-1α (P402A/P564A) (UniProt Q16665); experiment: co-IP; anti-Flag immunoprecipitation from whole cell lysates of transfected HEK 293T cells, Western blot; cells treated with vehicle, 17-AAG (2 µM, 8 hr) or MG132 (5 µM, 8 hr) in some panels; lysis buffer 0.4 M NaCl, 0.1% NP-40, 10 mM Tris-HCl pH 8.0, 1 mM EDTA
Flag-HIF-1α [2] = molecular target: Flag-HIF-1α (UniProt Q16665); experiment: as above
Flag-HIF-1α [3] = molecular target: Flag-HIF-1α (UniProt Q16665); experiment: co-IP; sequential immunoprecipitation: anti-Flag precipitates from HEK 293T lysates (cells treated with 17-AAG 2 µM, 8 hr) eluted with Flag-peptide, eluates re-precipitated with anti-HA antibody; Western blot

Substance	binding [1]	binding (Flag-HIF-1α [2])	binding (Flag-HIF-1α [3])
COMMD1-Ha (from UniProt Q8N668 1-190)	binds	binds	binds
Ha-HSP90β (from UniProt P08238 1-724)	binds	binds	–
